{"source": "PubChem BioAssay AID652243 (Drosophila RNAi Screening Center, 2013)", "test": "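Fly genes required for human androgen receptor driven transcription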 (primary screen)", "cells": "Drosophila S2R+ cells", "reagents": "long dsRNA against Drosophila genes", "time to read-out": "72 h (48 h, then 24 h hormone)", "conditions": "synthetic androgen R1881 at 10 nM for 24 h", "measurement": "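Per-well raw luminescence of the androgen-driven firefly reporter and of the Renilla control, two replicates each, without normalisation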", "scale": "firefly reporter light: higher = more light from androgen-responsive reporter; Renilla control light: higher = more constitutive control signal (cell number, transfection)", "active means": "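Hit when the log firefly-to-Renilla ratio dropped or increased by a fixed fold versus the mean of GFP or LacZ controls across duplicate plates; lowering cut given as 1.5 and as 3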", "meaning of the calls": "active = hit: reporter lowered or raised; inactive = no hit", "note": "The deposit covers about 24,000 reagents; shown is a random part of those with a known target gene and a result. Over the whole deposit, 246 (1%) are marked active. 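Plates not normalised; calls are printed but the firefly/Renilla ratio behind them is not deposited; fold cut for lowering reported inconsistently.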 Raw values vary from plate to plate and are shown uncorrected. The numbers tell different reagents against one gene apart. Not given: the amount of reagent."}
{"gene knocked down":"CG33226","reagent":1,"firefly reporter light, replicate 1":7.46e5,"firefly reporter light, replicate 2":4.91e5,"Renilla control light, replicate 1":2.18e6,"Renilla control light, replicate 2":1.13e6,"activity call":"inactive"}
{"gene knocked down":"HDAC3","reagent":1,"firefly reporter light, replicate 1":40978,"firefly reporter light, replicate 2":54335,"Renilla control light, replicate 1":3.20e5,"Renilla control light, replicate 2":3.47e5,"activity call":"inactive"}
{"gene knocked down":"MrgBP","reagent":1,"firefly reporter light, replicate 1":2.63e5,"firefly reporter light, replicate 2":1.99e5,"Renilla control light, replicate 1":2.11e6,"Renilla control light, replicate 2":1.42e6,"activity call":"inactive"}
{"gene knocked down":"MrgBP","reagent":2,"firefly reporter light, replicate 1":3.64e5,"firefly reporter light, replicate 2":3.39e5,"Renilla control light, replicate 1":1.06e6,"Renilla control light, replicate 2":1.10e6,"activity call":"inactive"}
{"gene knocked down":"Pgd","reagent":1,"firefly reporter light, replicate 1":30631,"firefly reporter light, replicate 2":43898,"Renilla control light, replicate 1":5.01e5,"Renilla control light, replicate 2":3.31e5,"activity call":"inactive"}
{"gene knocked down":"Pgd","reagent":2,"firefly reporter light, replicate 1":7.41e5,"firefly reporter light, replicate 2":6.77e5,"Renilla control light, replicate 1":1.35e6,"Renilla control light, replicate 2":1.15e6,"activity call":"inactive"}
{"gene knocked down":"JMJD6","reagent":1,"firefly reporter light, replicate 1":41714,"firefly reporter light, replicate 2":30901,"Renilla control light, replicate 1":2.31e5,"Renilla control light, replicate 2":3.11e5,"activity call":"inactive"}
{"gene knocked down":"JMJD6","reagent":2,"firefly reporter light, replicate 1":2.58e5,"firefly reporter light, replicate 2":2.22e5,"Renilla control light, replicate 1":4.64e5,"Renilla control light, replicate 2":4.07e5,"activity call":"inactive"}
{"gene knocked down":"dpr2","reagent":1,"firefly reporter light, replicate 1":3.04e5,"firefly reporter light, replicate 2":2.16e5,"Renilla control light, replicate 1":2.05e6,"Renilla control light, replicate 2":1.67e6,"activity call":"inactive"}
{"gene knocked down":"dpr2","reagent":2,"firefly reporter light, replicate 1":2.40e5,"firefly reporter light, replicate 2":2.60e5,"Renilla control light, replicate 1":1.86e6,"Renilla control light, replicate 2":2.12e6,"activity call":"inactive"}
{"gene knocked down":"hyd","reagent":1,"firefly reporter light, replicate 1":1.05e5,"firefly reporter light, replicate 2":1.36e5,"Renilla control light, replicate 1":2.38e6,"Renilla control light, replicate 2":2.76e6,"activity call":"inactive"}
{"gene knocked down":"hyd","reagent":2,"firefly reporter light, replicate 1":4.66e5,"firefly reporter light, replicate 2":6.63e5,"Renilla control light, replicate 1":9.89e5,"Renilla control light, replicate 2":1.70e6,"activity call":"inactive"}
{"gene knocked down":"S-Lap8","reagent":1,"firefly reporter light, replicate 1":4.47e5,"firefly reporter light, replicate 2":5.59e5,"Renilla control light, replicate 1":2.44e6,"Renilla control light, replicate 2":2.50e6,"activity call":"inactive"}
{"gene knocked down":"S-Lap8","reagent":2,"firefly reporter light, replicate 1":6.27e5,"firefly reporter light, replicate 2":6.78e5,"Renilla control light, replicate 1":2.22e6,"Renilla control light, replicate 2":2.87e6,"activity call":"inactive"}
{"gene knocked down":"S-Lap8","reagent":3,"firefly reporter light, replicate 1":2.61e5,"firefly reporter light, replicate 2":3.14e5,"Renilla control light, replicate 1":7.18e5,"Renilla control light, replicate 2":7.18e5,"activity call":"inactive"}
{"gene knocked down":"HLH4C","reagent":1,"firefly reporter light, replicate 1":2.60e5,"firefly reporter light, replicate 2":2.12e5,"Renilla control light, replicate 1":2.45e6,"Renilla control light, replicate 2":2.01e6,"activity call":"inactive"}
{"gene knocked down":"HLH4C","reagent":2,"firefly reporter light, replicate 1":5.92e5,"firefly reporter light, replicate 2":5.78e5,"Renilla control light, replicate 1":2.17e6,"Renilla control light, replicate 2":2.31e6,"activity call":"inactive"}
{"gene knocked down":"HLH4C","reagent":3,"firefly reporter light, replicate 1":4.32e5,"firefly reporter light, replicate 2":3.73e5,"Renilla control light, replicate 1":4.19e5,"Renilla control light, replicate 2":4.85e5,"activity call":"inactive"}
{"gene knocked down":"t","reagent":1,"firefly reporter light, replicate 1":4.23e5,"firefly reporter light, replicate 2":4.21e5,"Renilla control light, replicate 1":3.15e6,"Renilla control light, replicate 2":3.07e6,"activity call":"inactive"}
{"gene knocked down":"t","reagent":2,"firefly reporter light, replicate 1":7.53e5,"firefly reporter light, replicate 2":6.08e5,"Renilla control light, replicate 1":7.80e5,"Renilla control light, replicate 2":7.80e5,"activity call":"inactive"}
{"gene knocked down":"CG30395","reagent":1,"firefly reporter light, replicate 1":3.46e5,"firefly reporter light, replicate 2":3.96e5,"Renilla control light, replicate 1":4.54e5,"Renilla control light, replicate 2":2.96e5,"activity call":"inactive"}
{"gene knocked down":"CG8141","reagent":1,"firefly reporter light, replicate 1":1.51e5,"firefly reporter light, replicate 2":1.80e5,"Renilla control light, replicate 1":2.33e6,"Renilla control light, replicate 2":2.29e6,"activity call":"inactive"}
{"gene knocked down":"retm","reagent":1,"firefly reporter light, replicate 1":2.79e5,"firefly reporter light, replicate 2":4.89e5,"Renilla control light, replicate 1":9.70e5,"Renilla control light, replicate 2":1.23e6,"activity call":"inactive"}
{"gene knocked down":"CheB93b","reagent":1,"firefly reporter light, replicate 1":5.33e5,"firefly reporter light, replicate 2":4.78e5,"Renilla control light, replicate 1":2.71e5,"Renilla control light, replicate 2":2.70e5,"activity call":"inactive"}
{"gene knocked down":"CG13494","reagent":1,"firefly reporter light, replicate 1":4.40e5,"firefly reporter light, replicate 2":2.95e5,"Renilla control light, replicate 1":3.04e6,"Renilla control light, replicate 2":1.97e6,"activity call":"inactive"}
{"gene knocked down":"CG13494","reagent":2,"firefly reporter light, replicate 1":3.87e5,"firefly reporter light, replicate 2":2.85e5,"Renilla control light, replicate 1":6.08e5,"Renilla control light, replicate 2":7.10e5,"activity call":"inactive"}
{"gene knocked down":"CG18586","reagent":1,"firefly reporter light, replicate 1":1.29e5,"firefly reporter light, replicate 2":75292,"Renilla control light, replicate 1":1.10e6,"Renilla control light, replicate 2":1.19e6,"activity call":"inactive"}

Quoted from above (4 entries):
{"gene knocked down":"t","reagent":1,"firefly reporter light, replicate 1":4.23e5,"firefly reporter light, replicate 2":4.21e5,"Renilla control light, replicate 1":3.15e6,"Renilla control light, replicate 2":3.07e6,"activity call":"inactive"}
{"gene knocked down":"t","reagent":2,"firefly reporter light, replicate 1":7.53e5,"firefly reporter light, replicate 2":6.08e5,"Renilla control light, replicate 1":7.80e5,"Renilla control light, replicate 2":7.80e5,"activity call":"inactive"}
{"gene knocked down":"CG30395","reagent":1,"firefly reporter light, replicate 1":3.46e5,"firefly reporter light, replicate 2":3.96e5,"Renilla control light, replicate 1":4.54e5,"Renilla control light, replicate 2":2.96e5,"activity call":"inactive"}
{"gene knocked down":"CG8141","reagent":1,"firefly reporter light, replicate 1":1.51e5,"firefly reporter light, replicate 2":1.80e5,"Renilla control light, replicate 1":2.33e6,"Renilla control light, replicate 2":2.29e6,"activity call":"inactive"}
